Data taken from PMC4942838.
These are yes or no findings as the source states them, for the method shown. In cells and extracts the contact can be indirect. A yes stands for co-enrichment or nearness to the bait. Other partners may have been found.

Chains of the proteins cited; added tags and fusions are not shown.
UniProt Q24572: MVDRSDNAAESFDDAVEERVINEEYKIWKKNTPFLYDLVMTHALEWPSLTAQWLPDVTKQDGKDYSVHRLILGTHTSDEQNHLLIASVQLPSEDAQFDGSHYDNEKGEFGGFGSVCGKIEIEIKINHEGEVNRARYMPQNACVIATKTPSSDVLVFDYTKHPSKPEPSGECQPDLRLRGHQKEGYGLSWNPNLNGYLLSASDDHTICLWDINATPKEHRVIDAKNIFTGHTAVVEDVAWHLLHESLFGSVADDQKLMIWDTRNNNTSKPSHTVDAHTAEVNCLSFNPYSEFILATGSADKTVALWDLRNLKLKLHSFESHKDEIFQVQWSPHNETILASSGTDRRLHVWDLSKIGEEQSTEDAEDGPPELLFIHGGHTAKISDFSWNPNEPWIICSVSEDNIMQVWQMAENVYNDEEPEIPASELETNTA
UniProt O97159: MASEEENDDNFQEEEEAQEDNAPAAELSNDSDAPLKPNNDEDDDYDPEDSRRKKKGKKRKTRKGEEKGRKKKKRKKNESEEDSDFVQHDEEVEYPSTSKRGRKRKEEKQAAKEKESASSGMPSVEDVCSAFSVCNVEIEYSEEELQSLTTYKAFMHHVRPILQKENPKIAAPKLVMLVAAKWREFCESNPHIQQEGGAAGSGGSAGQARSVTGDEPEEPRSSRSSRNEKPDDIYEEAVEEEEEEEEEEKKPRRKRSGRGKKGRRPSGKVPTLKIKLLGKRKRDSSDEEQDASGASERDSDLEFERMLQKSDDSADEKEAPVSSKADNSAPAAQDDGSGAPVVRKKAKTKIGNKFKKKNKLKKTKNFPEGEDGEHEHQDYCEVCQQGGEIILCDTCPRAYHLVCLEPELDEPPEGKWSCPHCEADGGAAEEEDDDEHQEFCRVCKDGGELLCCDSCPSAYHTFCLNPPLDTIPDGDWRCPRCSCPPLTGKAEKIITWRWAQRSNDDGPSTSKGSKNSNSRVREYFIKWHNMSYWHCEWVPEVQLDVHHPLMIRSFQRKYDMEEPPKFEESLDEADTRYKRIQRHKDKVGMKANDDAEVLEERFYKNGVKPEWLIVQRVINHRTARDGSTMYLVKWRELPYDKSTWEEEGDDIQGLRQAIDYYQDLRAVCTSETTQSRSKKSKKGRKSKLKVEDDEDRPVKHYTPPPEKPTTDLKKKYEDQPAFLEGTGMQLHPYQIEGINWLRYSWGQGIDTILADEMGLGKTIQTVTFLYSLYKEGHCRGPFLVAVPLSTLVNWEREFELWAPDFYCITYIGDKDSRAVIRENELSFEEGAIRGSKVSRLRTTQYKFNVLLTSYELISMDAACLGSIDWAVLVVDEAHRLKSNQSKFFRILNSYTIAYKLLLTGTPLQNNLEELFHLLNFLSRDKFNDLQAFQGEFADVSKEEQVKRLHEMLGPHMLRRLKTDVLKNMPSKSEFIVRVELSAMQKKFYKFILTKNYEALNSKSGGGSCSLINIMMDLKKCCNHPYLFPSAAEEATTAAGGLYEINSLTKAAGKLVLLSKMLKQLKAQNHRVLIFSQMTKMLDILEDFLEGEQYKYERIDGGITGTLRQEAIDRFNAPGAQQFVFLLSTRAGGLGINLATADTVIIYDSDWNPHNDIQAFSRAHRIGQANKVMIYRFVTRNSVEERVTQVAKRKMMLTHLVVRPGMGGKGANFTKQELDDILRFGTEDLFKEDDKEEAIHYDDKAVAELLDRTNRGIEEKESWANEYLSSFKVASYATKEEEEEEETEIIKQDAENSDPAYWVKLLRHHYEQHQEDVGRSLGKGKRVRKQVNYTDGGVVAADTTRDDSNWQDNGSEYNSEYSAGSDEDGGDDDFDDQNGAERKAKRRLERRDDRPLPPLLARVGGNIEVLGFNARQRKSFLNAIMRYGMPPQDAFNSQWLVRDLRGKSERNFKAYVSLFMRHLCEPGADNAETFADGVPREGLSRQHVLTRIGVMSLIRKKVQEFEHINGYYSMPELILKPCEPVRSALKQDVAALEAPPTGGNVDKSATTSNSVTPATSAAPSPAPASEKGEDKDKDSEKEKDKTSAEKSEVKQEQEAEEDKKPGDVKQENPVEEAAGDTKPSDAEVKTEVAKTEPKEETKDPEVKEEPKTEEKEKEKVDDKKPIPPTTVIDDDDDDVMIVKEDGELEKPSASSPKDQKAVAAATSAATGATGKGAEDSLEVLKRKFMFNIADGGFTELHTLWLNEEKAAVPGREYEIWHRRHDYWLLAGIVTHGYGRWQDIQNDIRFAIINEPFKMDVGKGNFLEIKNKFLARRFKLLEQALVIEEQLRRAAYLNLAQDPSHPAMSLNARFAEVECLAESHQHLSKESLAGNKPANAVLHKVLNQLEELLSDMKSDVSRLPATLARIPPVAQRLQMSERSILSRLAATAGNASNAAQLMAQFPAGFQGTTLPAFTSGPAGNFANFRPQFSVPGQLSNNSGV
UniProt Q94517: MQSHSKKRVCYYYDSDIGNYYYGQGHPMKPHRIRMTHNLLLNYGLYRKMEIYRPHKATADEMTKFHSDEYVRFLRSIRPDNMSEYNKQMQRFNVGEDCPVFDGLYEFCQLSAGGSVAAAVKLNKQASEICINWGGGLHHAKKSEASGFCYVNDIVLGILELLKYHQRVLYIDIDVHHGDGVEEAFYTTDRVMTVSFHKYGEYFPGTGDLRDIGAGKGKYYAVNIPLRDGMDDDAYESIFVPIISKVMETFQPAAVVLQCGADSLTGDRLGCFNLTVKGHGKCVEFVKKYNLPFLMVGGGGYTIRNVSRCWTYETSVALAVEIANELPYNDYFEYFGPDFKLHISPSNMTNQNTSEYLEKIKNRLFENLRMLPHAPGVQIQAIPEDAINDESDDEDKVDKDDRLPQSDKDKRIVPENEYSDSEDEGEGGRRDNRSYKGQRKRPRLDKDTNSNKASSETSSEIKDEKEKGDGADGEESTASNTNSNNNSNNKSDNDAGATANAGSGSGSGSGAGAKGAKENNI

Target: GFP-tagged p55 (GFP-p55), bait (Drosophila) (UniProt Q24572)
Experiment: affinity purification with mass spectrometry; GFP-trap resin capture of GFP-p55 from nuclear extract of Drosophila S2 Schneider cells; control pull-down with GFP only; label-free quantitative MS

Substance | binding
CHD4 (Drosophila Mi-2, endogenous) (from UniProt O97159 1-1982) (enzyme) | binds
Rpd3 (endogenous) (from UniProt Q94517 1-521) (enzyme) | binds
